The values that follow come from the supplement of paper PMC10032668.

Protein sequences, listed by entry. Tags and fused reporters are not part of them.
AP2A2, O94973, UniProt O94973, whole entry: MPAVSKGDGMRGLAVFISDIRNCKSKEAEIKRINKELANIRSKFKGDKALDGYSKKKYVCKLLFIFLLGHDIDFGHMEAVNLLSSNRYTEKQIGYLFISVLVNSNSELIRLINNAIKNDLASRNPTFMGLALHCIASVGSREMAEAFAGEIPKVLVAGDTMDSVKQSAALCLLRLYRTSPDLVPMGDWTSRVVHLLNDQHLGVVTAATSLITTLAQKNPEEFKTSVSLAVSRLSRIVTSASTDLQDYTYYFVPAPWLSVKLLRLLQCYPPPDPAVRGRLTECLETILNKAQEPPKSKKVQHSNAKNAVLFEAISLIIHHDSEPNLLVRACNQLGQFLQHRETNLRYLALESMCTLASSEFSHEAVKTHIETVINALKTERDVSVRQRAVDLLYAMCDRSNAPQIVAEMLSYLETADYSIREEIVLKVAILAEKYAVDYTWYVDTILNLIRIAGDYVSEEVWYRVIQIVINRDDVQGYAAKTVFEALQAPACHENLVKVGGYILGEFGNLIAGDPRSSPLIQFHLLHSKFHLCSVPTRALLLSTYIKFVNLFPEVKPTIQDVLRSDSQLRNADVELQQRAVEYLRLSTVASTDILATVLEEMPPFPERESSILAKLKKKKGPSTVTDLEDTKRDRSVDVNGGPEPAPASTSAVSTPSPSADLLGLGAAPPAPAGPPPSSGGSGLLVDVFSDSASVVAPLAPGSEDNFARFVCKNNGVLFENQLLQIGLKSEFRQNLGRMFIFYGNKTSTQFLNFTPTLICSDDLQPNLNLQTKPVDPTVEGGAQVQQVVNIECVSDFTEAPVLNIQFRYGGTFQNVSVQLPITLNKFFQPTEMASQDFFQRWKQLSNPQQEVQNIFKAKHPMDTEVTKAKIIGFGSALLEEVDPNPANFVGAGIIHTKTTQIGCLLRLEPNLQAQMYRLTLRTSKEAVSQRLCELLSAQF
APEX1, P27695, UniProt P27695, whole entry: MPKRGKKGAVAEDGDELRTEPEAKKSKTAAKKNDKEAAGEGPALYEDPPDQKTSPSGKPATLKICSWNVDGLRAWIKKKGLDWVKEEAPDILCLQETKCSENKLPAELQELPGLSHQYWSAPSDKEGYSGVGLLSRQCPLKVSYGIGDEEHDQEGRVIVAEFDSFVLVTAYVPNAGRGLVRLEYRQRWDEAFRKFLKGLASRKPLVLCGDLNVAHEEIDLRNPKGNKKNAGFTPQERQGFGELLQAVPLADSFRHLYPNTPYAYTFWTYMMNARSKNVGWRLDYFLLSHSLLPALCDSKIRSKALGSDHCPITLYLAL
ATP6V0D1, P61421, UniProt P61421, whole entry: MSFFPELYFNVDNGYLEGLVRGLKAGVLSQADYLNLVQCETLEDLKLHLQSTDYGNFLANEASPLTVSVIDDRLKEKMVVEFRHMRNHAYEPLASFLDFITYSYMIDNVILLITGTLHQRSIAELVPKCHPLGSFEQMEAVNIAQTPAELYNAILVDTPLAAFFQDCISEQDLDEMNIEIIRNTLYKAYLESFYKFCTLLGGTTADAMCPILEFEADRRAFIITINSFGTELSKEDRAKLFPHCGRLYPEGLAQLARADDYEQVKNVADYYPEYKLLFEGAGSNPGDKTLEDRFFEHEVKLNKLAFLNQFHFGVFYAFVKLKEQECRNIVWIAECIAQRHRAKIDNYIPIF
RGPD5, Q99666, UniProt Q99666, whole entry: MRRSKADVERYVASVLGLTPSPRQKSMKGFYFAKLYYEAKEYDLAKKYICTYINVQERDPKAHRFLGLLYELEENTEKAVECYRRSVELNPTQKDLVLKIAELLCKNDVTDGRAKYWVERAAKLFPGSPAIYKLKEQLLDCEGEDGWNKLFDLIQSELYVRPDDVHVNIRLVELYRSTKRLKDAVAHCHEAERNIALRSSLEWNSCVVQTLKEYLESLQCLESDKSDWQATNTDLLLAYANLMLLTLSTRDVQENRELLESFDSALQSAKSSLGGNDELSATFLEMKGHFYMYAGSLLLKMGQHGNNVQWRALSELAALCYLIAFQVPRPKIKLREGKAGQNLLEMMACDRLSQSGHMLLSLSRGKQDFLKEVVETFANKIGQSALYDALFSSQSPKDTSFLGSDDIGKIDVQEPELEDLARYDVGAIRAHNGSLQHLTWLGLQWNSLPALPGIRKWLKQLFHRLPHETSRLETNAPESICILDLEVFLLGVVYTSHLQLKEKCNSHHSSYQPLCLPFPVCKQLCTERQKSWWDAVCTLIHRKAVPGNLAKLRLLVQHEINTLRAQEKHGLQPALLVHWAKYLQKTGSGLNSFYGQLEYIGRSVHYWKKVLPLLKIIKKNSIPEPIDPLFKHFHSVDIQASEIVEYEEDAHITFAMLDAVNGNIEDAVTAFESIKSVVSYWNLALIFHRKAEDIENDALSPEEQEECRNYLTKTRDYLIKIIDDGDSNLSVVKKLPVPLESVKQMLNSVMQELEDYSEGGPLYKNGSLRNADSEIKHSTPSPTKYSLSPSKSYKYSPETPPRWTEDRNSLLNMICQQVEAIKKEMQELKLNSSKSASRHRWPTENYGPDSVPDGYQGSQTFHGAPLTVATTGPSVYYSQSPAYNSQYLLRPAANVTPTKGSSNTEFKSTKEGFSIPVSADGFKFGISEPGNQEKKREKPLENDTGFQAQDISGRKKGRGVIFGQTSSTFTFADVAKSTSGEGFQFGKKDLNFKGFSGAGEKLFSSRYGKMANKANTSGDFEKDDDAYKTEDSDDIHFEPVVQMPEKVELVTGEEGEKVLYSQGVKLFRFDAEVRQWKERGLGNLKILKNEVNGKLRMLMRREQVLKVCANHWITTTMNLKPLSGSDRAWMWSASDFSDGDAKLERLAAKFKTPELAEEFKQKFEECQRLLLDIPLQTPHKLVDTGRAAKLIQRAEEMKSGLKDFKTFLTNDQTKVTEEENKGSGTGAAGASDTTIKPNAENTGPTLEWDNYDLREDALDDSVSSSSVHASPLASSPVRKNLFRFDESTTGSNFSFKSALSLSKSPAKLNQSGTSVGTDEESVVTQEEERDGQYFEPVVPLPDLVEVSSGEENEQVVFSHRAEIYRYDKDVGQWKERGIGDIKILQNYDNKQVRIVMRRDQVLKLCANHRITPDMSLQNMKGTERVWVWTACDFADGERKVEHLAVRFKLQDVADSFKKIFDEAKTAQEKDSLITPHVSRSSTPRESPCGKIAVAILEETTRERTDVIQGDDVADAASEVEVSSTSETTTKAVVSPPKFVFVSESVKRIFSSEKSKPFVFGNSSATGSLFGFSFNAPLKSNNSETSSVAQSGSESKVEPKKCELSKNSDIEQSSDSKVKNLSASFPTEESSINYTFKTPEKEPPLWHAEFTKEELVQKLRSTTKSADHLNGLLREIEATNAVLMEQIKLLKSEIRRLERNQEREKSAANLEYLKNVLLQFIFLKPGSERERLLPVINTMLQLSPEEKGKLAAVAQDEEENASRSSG
EIF4E, P06730, UniProt P06730, whole entry: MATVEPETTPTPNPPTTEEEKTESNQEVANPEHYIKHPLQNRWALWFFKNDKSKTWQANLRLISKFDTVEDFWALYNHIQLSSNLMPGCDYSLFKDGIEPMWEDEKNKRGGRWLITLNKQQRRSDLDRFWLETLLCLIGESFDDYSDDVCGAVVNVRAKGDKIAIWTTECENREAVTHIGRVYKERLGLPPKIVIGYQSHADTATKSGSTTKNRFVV
INTS7, Q9NVH2, UniProt Q9NVH2, whole entry: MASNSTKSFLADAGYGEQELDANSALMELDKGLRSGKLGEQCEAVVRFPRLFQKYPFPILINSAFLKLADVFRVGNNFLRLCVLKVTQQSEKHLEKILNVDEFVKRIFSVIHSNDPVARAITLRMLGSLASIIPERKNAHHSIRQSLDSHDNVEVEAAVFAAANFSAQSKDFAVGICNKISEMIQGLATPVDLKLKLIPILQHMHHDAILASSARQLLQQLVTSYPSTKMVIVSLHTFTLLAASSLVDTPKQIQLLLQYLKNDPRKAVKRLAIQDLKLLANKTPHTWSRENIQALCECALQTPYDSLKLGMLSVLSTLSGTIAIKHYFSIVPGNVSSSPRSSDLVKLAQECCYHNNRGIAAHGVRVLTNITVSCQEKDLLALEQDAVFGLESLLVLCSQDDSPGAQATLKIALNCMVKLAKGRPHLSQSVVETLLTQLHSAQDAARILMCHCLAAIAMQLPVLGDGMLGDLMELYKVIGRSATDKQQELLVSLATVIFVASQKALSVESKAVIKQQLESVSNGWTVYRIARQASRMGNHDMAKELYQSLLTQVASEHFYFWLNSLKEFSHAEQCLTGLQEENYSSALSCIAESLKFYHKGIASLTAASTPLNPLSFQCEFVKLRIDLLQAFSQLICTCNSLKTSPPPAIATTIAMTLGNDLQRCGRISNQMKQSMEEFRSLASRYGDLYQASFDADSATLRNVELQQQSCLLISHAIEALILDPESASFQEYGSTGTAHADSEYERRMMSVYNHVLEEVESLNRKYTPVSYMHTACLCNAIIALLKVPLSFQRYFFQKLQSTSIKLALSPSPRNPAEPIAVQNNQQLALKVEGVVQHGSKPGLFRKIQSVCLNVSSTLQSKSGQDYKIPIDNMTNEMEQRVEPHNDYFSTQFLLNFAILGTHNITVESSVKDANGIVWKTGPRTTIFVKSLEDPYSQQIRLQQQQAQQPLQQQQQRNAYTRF
SERPINA1, P01009, UniProt P01009, whole entry: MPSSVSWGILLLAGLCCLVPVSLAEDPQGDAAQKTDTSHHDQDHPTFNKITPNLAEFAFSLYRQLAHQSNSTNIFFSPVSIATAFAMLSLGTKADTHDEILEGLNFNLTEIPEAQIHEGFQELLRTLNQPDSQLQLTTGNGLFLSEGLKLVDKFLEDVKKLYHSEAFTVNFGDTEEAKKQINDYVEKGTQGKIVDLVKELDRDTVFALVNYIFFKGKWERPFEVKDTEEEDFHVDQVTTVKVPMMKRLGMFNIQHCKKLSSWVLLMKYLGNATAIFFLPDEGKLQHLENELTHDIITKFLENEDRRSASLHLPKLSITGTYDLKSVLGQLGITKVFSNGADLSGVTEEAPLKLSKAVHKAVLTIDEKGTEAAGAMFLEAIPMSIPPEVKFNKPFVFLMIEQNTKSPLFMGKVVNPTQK
SRPK1, Q96SB4, UniProt Q96SB4, whole entry: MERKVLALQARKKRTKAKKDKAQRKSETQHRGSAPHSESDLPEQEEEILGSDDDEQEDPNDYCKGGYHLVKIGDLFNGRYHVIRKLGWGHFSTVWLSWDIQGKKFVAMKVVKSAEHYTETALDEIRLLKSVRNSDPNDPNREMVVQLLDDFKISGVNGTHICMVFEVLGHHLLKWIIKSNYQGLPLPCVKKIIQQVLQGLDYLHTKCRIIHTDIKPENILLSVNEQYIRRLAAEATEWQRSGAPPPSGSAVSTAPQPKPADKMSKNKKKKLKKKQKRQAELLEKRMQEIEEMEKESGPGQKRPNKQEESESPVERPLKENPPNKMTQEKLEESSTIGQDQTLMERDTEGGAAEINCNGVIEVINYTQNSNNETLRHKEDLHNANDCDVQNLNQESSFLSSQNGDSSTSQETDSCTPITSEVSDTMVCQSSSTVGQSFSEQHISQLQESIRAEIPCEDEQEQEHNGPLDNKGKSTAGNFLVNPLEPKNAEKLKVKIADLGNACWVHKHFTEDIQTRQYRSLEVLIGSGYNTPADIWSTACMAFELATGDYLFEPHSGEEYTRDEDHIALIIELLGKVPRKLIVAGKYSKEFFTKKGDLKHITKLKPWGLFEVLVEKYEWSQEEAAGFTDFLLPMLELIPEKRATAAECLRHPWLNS
TF, P02787, UniProt P02787, whole entry: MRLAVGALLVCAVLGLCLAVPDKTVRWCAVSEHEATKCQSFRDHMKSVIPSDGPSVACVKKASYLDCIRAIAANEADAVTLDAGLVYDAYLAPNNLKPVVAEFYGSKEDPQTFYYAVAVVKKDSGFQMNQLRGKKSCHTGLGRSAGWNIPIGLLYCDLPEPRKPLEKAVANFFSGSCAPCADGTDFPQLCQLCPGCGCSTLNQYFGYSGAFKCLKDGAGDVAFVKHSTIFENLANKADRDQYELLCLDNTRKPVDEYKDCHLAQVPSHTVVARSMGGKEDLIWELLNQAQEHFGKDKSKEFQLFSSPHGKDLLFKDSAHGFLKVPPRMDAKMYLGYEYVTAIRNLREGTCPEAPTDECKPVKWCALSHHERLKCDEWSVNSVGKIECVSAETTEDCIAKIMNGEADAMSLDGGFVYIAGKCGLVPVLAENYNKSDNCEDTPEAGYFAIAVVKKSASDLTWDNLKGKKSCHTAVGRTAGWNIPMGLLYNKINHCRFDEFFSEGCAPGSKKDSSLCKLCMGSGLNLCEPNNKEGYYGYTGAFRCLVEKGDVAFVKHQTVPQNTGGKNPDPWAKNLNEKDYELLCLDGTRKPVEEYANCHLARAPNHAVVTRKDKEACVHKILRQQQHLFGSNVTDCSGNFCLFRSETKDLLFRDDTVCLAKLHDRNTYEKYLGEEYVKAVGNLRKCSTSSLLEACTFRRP

The list shows a part of the results. Only hits are listed; about a third recur on repeated control peptides.

Holding throughout (assay): PRISMA enrichment of interactor (LFQ) in peptide spot vs all other peptide spots (log2 fold change); higher = stronger / more specific binding of the interactor to the peptide
One assay concerns the target AP2A2, O94973. The procedure:
(§1)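 PRISMA: 15-aa overlapping tiles (offset 8 aa) of 60 microproteins, plus SOS1/GLUT1 control peptides, were spot-synthesized on cellulose membranes in triplicate. Membranes were incubated with benzonase-treated HEK293T lysate, and bound proteins were identified by LC-MS/MS with LFQ. Enrichment is the log2 fold change of each protein in one spot versus all other spots. Only interactors passing the significance cutoff are listed.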

The target in another assay is AP2S1, P53680. How it is done: as §1
The target of a further assay is DHRS4, Q9BTZ2. How it is done: as §1
The target of the next assay is NXF1, Q9UBU9. The procedure: as §1
The next assay has as its target POLDIP2, Q9Y2S7. How it is done: as §1
In the next assay the target is ANXA7, P20073. How it is done: as §1
The target in another assay is APEX1, P27695. How it is done: as §1
The target of a further assay is ARFGAP1, Q8N6T3. How it is done: as §1
The next assay addresses BANF1, O75531. How it is done:
as §1

The next assay concerns the target BPTF, Q12830. How it is done:
as §1

Another assay deals with CHP1, Q99653. The procedure:
as §1

A further assay has as its target CKAP2, Q8WWK9. The procedure: as §1
The next assay concerns the target CTPS1, P17812. How it is done: as §1
A further assay concerns the target EARS2, Q5JPH6. How it is done:
as §1

In another assay the target is FOCAD, Q5VW36. The procedure:
as §1

A further assay has as its target GRB10, Q13322. How it is done:
as §1

The target in another assay is HOXB9, P17482. The procedure:
as §1

The next assay concerns the target IGF2BP2, Q9Y6M1. The procedure:
as §1

Another assay concerns the target MCMBP, Q9BTE3. The procedure:
as §1

A further assay concerns the target P4HB, P07237. The procedure:
as §1

In the next assay the target is SEC23A, Q15436. How it is done: as §1
A further assay concerns the target SMARCC1, Q92922. The procedure: as §1
In a further assay the target is SRRT, Q9BXP5. How it is done: as §1
Another assay concerns the target TBCD, Q9BTW9. The procedure:
as §1

The target of another assay is WTAP, Q15007. How it is done: as §1
Another assay has as its target ZC3H11A, O75152. The procedure:
as §1

In a further assay the target is ZNF724, A8MTY0. The procedure: as §1
A further assay addresses AP2A1, O95782. The procedure: as §1
The next assay addresses AP2B1, P63010. How it is done: as §1
The next assay has as its target ASS1, P00966. The procedure: as §1
A further assay deals with ATP6V0D1, P61421. How it is done:
as §1

For another assay, the target named is C19orf53, Q9UNZ5. How it is done:
as §1

The target of a further assay is CDC42EP1, Q00587. The procedure:
as §1

The next assay addresses CHTOP, Q9Y3Y2. The procedure: as §1
In another assay the target is DHX40, Q8IX18. The procedure:
as §1

The target of a further assay is DIS3, Q9Y2L1. The procedure:
as §1

Another assay has as its target ECHS1, P30084. How it is done: as §1
For a further assay, the target named is MRPL27, Q9P0M9. The procedure: as §1
The target in another assay is MRRF, Q96E11. The procedure: as §1
A further assay addresses NECAP2, Q9NVZ3. How it is done: as §1
The target of another assay is NME4, O00746. How it is done: as §1
The target in another assay is NUDT16L1, Q9BRJ7. The procedure: as §1
In the next assay the target is RGPD5, Q99666. The procedure:
as §1

The next assay addresses RRS1, Q15050. How it is done: as §1
A further assay concerns the target SFPQ, P23246. How it is done:
as §1

A further assay addresses SNX27, Q96L92. How it is done:
as §1

The target of the next assay is YTHDC2, Q9H6S0. How it is done:
as §1

The next assay addresses AP2M1, Q96CW1. The procedure: as §1
The target of another assay is C19orf47, Q8N9M1. The procedure: as §1
A further assay deals with CDCA8, Q53HL2. How it is done: as §1
In a further assay the target is CREB1, P16220. The procedure:
as §1

The next assay deals with DECR2, Q9NUI1. How it is done:
as §1

In a further assay the target is EIF4E, P06730. The procedure: as §1
A further assay deals with FGA, P02671. The procedure:
as §1

The target of another assay is INTS7, Q9NVH2. The procedure:
as §1

The next assay concerns the target KTI12, Q96EK9. How it is done: as §1
The target in the next assay is LAMA5, O15230. The procedure: as §1
In another assay the target is MRPS34, P82930. How it is done: as §1
In the next assay the target is NOP53, Q9NZM5. The procedure:
as §1

The next assay deals with PCYT1A, P49585. The procedure: as §1
The target of a further assay is PPP1R2, P41236. The procedure: as §1
The next assay deals with SERPINA1, P01009. How it is done:
as §1

The target of another assay is SRSF5, Q13243. The procedure: as §1
Another assay deals with SUPT4H1, P63272. How it is done: as §1
Another assay deals with TMEM109, Q9BVC6. How it is done:
as §1

A further assay concerns the target VCP, P55072. The procedure:
as §1

Another assay addresses ZC3H15, Q8WU90. The procedure: as §1
The target in the next assay is ZGRF1, Q86YA3. How it is done: as §1
In a further assay the target is MRPS16, Q9Y3D3. The procedure:
as §1

The target in another assay is RBL2, Q08999. The procedure:
as §1

In a further assay the target is RRP1B, Q14684. How it is done:
as §1

In a further assay the target is SRPK1, Q96SB4. How it is done:
as §1

Another assay addresses SYNE2, Q8WXH0. How it is done: as §1
Another assay deals with TF, P02787. The procedure: as §1

With TFSTFSFNCHNSEVD, the “PRISMA enrichment of interactor (log2)” value was found to be 4.68 in the assay with AP2A2, O94973; 4.6 with AP2S1, P53680; 4.68 with DHRS4, Q9BTZ2; 5.15 with NXF1, Q9UBU9; 4.65 in the assay with POLDIP2, Q9Y2S7.

With DSVRDRLPQDHSAPA, the “PRISMA enrichment of interactor (log2)” value worked out at 4.02 with ANXA7, P20073; 3.79 with APEX1, P27695; 7.69 in the assay with ARFGAP1, Q8N6T3; 5.19 in the assay with BANF1, O75531; 6.17 with BPTF, Q12830; 3.7 in the assay with CHP1, Q99653. For the same molecule, the “PRISMA enrichment of interactor (log2)” value amounted to 13.4 with CKAP2, Q8WWK9; 4.83 in the assay with CTPS1, P17812; 3.87 in the assay with EARS2, Q5JPH6; 4.73 in the assay with FOCAD, Q5VW36; 5.11 with GRB10, Q13322; 5.64 in the assay with HOXB9, P17482. In addition, the “PRISMA enrichment of interactor (log2)” value with IGF2BP2, Q9Y6M1 stood at 5.05; in the assay with MCMBP, Q9BTE3 it was 3.86; in the assay with P4HB, P07237, 5.28; with SEC23A, Q15436 it was 6.27; with SMARCC1, Q92922, 3.83; in the assay with SRRT, Q9BXP5, 6.63. Moreover, the “PRISMA enrichment of interactor (log2)” value with TBCD, Q9BTW9 was found to be 5.65; in the assay with WTAP, Q15007, 3.51; in the assay with ZC3H11A, O75152 it was 9.35; with ZNF724, A8MTY0 it was 6.82.

Regarding VPVRNSSTGLSSFWE [RP11-432J24.5_2], the “PRISMA enrichment of interactor (log2)” value with AP2A1, O95782 was found to be 5.07; with AP2B1, P63010 it was 4.97; with ASS1, P00966, 4.13; in the assay with ATP6V0D1, P61421 it was 7.17; in the assay with C19orf53, Q9UNZ5 it was 5.39; with CDC42EP1, Q00587 it was 5.26. Also, the “PRISMA enrichment of interactor (log2)” value in the assay with CHTOP, Q9Y3Y2 came to 5.37; in the assay with DHX40, Q8IX18 it was 4; in the assay with DIS3, Q9Y2L1 it was 5.02; with ECHS1, P30084, 5.26; with MRPL27, Q9P0M9, 8.3; with MRRF, Q96E11, 5.3. For the same molecule, the “PRISMA enrichment of interactor (log2)” value came out at 4.05 with NECAP2, Q9NVZ3; 4.61 with NME4, O00746; 4.64 in the assay with NUDT16L1, Q9BRJ7; 6.92 in the assay with RGPD5, Q99666; 5.01 in the assay with RRS1, Q15050; 5.18 with SFPQ, P23246. The “PRISMA enrichment of interactor (log2)” value in the assay with SNX27, Q96L92 is 5.86; with YTHDC2, Q9H6S0, 4.98.

In the case of LHGARLSPLSRNIRG [IDI2-AS1], the “PRISMA enrichment of interactor (log2)” value stood at 5.53 with AP2M1, Q96CW1; 5.8 with C19orf47, Q8N9M1; 6.34 with CDCA8, Q53HL2; 6.2 with CREB1, P16220; 8.86 in the assay with DECR2, Q9NUI1; 5.45 in the assay with EIF4E, P06730. Also, the “PRISMA enrichment of interactor (log2)” value came to 4.29 with FGA, P02671; 6.41 with INTS7, Q9NVH2; 4.1 with KTI12, Q96EK9; 5.04 in the assay with LAMA5, O15230; 6.59 with MRPS34, P82930; 5.76 with NME4, O00746. Moreover, the “PRISMA enrichment of interactor (log2)” value was found to be 6.41 in the assay with NOP53, Q9NZM5; 4.89 in the assay with PCYT1A, P49585; 5.72 with PPP1R2, P41236; 5.48 with SERPINA1, P01009; 5.61 with SRSF5, Q13243; 6.74 with SUPT4H1, P63272. The “PRISMA enrichment of interactor (log2)” value turned out to be 4.61 in the assay with TMEM109, Q9BVC6; 4.83 with VCP, P55072; 7.16 in the assay with ZC3H15, Q8WU90; 6.66 with ZGRF1, Q86YA3.

For the molecule RLRHGQEQRLQQLLR [RNF10], the “PRISMA enrichment of interactor (log2)” value in the assay with AP2M1, Q96CW1 was 5.48; in the assay with MRPS16, Q9Y3D3 it was 7.02; in the assay with NOP53, Q9NZM5, 4.76; with RBL2, Q08999, 4.9; with RRP1B, Q14684 it was 4.71; with SRPK1, Q96SB4 it was 6.16. The “PRISMA enrichment of interactor (log2)” value with SUPT4H1, P63272 worked out at 4.49; in the assay with SYNE2, Q8WXH0, 4.67; with TF, P02787, 4.44.
